Reference: PubChem BioAssay AID624002 (National Center for Advancing Translational Sciences (NCATS), 2012)
The inconclusive results got no clear call from the source; some entries with a clear call stand among them for comparison. Potencies of inconclusive entries are doubtful fits and often do not repeat. Activity calls are given as the source filed them. The call rests on the fitted dose curve; in most records, active means well fitted inhibition curve with a large enough effect; inconclusive means small, poorly fitted or top-dose-only effect; inactive means no such curve, though single readings can be large or run the other way.

Sequences of proteins named here, by UniProt entry; tags and fusion partners are left off.
UniProt O75874, whole entry R132H, stated change not applied: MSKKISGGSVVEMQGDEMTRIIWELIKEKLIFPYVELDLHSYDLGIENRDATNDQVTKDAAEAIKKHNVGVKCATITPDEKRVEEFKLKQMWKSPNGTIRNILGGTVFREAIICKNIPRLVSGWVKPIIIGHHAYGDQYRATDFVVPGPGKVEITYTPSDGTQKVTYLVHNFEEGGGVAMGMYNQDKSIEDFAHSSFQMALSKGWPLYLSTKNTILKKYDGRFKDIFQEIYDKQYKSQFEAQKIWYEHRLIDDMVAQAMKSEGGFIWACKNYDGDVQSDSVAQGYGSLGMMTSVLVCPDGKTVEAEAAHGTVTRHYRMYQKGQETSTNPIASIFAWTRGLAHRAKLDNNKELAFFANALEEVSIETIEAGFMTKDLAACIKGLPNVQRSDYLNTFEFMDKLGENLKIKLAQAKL

These molecules were tested against Isocitrate dehydrogenase [NADP] cytoplasmic (Homo sapiens) (UniProt O75874) (assay: qHTS for Inhibitors of mutant isocitrate dehydrogenase 1 (IDH1): Confirmation of Cherrypicks). Conditions: IDH1 R132H enzyme, NADPH diaphorase/resazurin fluorescence.
Description: Malignant glioblastomas (WHO grade IV), including primary and secondary glioblastomas, are among the most lethal with a median survival of one year, and unfortunately they are also the most prevalent type of brain tumors. By and large the standard of care of gliomas remains the use of the oral alkylating agent temozolomide and radiotherapy following surgical tumor resection. There is an urgent unmet medical need for novel therapeutics for gliomas. IDH mutations occur in up to 70% of grade II-IV secondary glioblastomas, and IDH1 R132H is the most prevalent mutation. […] Wild-type IDH1 catalyzes the conversion of isocitrate to -ketoglutarate with the concomitant reduction of NADP+ to NADPH. In contrast, IDH1 R132H catalyzes the conversion of -ketoglutarate to 2-hydroxyglutarate (2-HG) with the concomitant oxidation of NADPH to NADP+ [5]. Recently, a second significant advancement for the field was the finding that IDH is an oncogene, and that its metabolic product 2-HG may contribute to the pathogenesis of IDH-mutated cancers. […] Inhibition of the IDH1 R132H enzymatic reaction leads to an increase in the amount of NADPH relative to a DMSO control and a concomitant increase in the fluorescence of the diaphorase/resazurin enzyme product resorufin at 590 nm. […]
Enzyme buffer was dispensed into black, solid 1536-well plates at 3 microL/well in 20 mM Tris buffer, pH 7.5, containing final concentrations of 10 mM MgCl2, 20 mM NaCl, 0.001% Tween20, 0.05% BSA, 2 mM beta-ME and 5.2 nM IDH1 R132H. […] The inherent compound fluorescence was measured at this point at 590 nm on a ViewLux plate reader (Ex 525, Em 598, bodipy filter). […] After the reaction was allowed to progress for 80 minutes at room temperature, the remaining NADPH was detected with the diaphorase/resazurin-coupled system. […] The %Activity was determined from the corrected fluorescence values. […] Concentration-response curves were fitted to the signals arising from the resulting fluorescence. […]
Further: nearly all actives have a fitted effect of over 50% in size.
Potency means the concentration at half of the fitted maximal effect.

| SMILES | Potency |
| --- | --- |
| COCCCn1c(N)c(C(=O)Nc2sc3c(c2C(=O)OC)CCCC3)c2nc3ccccc3nc21 | inconclusive: 7.94 µM [inhibitor, full curve] |
| O=C(O)CSCC(=O)N(Cc1ccccc1)c1nc(-c2ccccc2)c(-c2ccccc2)s1 | active: 39.8 µM |
| C=C1C(=O)O[C@@H]2C[C@@H](C)[C@@H]3C=CC(=O)[C@@]3(C)[C@@H](OC(=O)CC(=O)O[C@H]3[C@@H]4C(=C)C(=O)O[C@@H]4C[C@@H](C)[C@@H]4C=CC(=O)[C@]43C)[C@H]12 | inconclusive: 39.8 µM [inhibitor, partial curve] |
